# Entries after “also recorded” stand apart in the source; their conditions may differ. Part of at least one peptide drawing is inferred or uncertain, most often the ends. At least one structure is not confirmed: it was looked up by name or label, or the drawing left a doubt. Where no end group is shown, it is not given here. The star is where a group is joined. Cam = NC(=O)C*
# Tested on: 7-week-old male ddY mouse
# Assay: Forced swim test (FST) after intranasal administration
# Assay type: in vivo
# Experimental: Administration solutions were prepared by completely dissolving PAS-CPP-GLP-2 derivative (no sugar) or PAS-CPP-GLP-2 derivatives (11-sugar, 5-sugar) in DMSO and adding PBS such that the final concentration of DMSO was 16% by mass. The concentration of each GLP-2 derivative was adjusted to 0.6 nmol/4 μL.
# After anesthetizing mice with isoflurane using an all-in-one small animal anesthetizer (MK-AT210D, Muromachi Kikai Co., Ltd., hereinafter the same), the solution was intranasally administered to the mice. Specifically, the intranasal administration was performed by contacting a tip of the anesthetizer to a nasal cavity in a horizontal manner such that the solution was inhaled by spontaneous respiration, by the amount of 2 μL per nose cavity, 4 μL in total (0.6 nmol/mouse). To the control group (Vehicle), a PBS solution containing DMSO by 16% by mass was intranasally administered by the amount of 4 μL.
# The intranasal administration was performed 20 minutes before a test session of a forced swim test (FST) as set forth below.
# A 7-week-old male ddY mouse is placed in a transparent plastic cylinder with a diameter of 18 cm and a height of 50 cm containing water at a temperature of 25° C.±1° C. to a height of 7 cm, and is allowed to swim for 15 minutes. Thereafter, the mouse is taken out from the cylinder and dried off with a towel, and returned to a cage. The procedure as mentioned above is referred to as a training session. After 24 hours of the completion of the training session, a 15-minute test session is performed in the same manner to the training session. The behavior of the mouse is recorded over the test session with a video camera. When the mouse is placed in the cylinder, it struggles to try to escape. When the mouse realizes that it cannot escape, the mouse gradually ceases to move giving up the escape. […] The time during which the mouse is in a state of immobility (immobility time) is measured in the first 6 minutes from the start of the test session. The existence or non-existence of anti-depressant-like effects is determined by the length of the immobility time. […]
substance,measurement,setting,value
"FFLIPKGRRRRRRRRGGHADGSFSDEMNTILDNLAARDFINWLIQTKITDC(Cam)-OH [PAS-CPP-GLP-2 (no sugar), reference compound]",immobility time / anti-depressant-like effect vs control group,"16% DMSO in PBS, 0.6 nmol/mouse intranasal, 20 minutes before test session, listed as PAS-CPP-GLP-2 derivative (no sugar)",significantly shortened; also recorded: expressed anti-depressant-like effects
same,anti-depressant-like effect vs control group,"16% DMSO, 0.3 nmol/mouse intranasal, test 20 minutes after administration",did not express a significant degree of anti-depressant-like effects
same,anti-depressant-like effect vs control group,"PBS as medium, 0.6 nmol/mouse intranasal, 20 minutes before test session",did not exhibit a significant anti-depressant-like effect

# Reference: patent US20240270811A1, “Glycosylated Neuropeptide Derivative, Pharmaceutical Composition, Intranasal/Nasal Drop Formulation, and Use of Pharmaceutical Composition” (Tokyo University of Science Foundation, priority 2021, published 2024)
